Measurements from PubChem BioAssay AID188 (DTP/NCI, 2004).
The mice bore no tumour; each value counts animals alive of those treated. Survivors were counted at the toxicity check, usually on the fifth day, unless a day is given; later deaths do not show. Schedules are NCI's codes, taken here to give the interval after Q, in days (D) or hours (H), and the number of doses after X.

System: CD2F1 mice, nontumored, toxicity/survival
Experiment: NCI In Vivo Anticancer Drug Screen. Data for tumor model Nontumored Animals (Toxicity Test) in CD2F1 (CDF1) mice
[1] = dose: 1.0 mg/kg/injection, schedule: Q01DX001 (ip), vehicle: DMSO
[2] = dose: 10.0 mg/kg/injection, schedule: Q01DX001 (ip), vehicle: DMSO
[3] = dose: 100.0 mg/kg/injection, schedule: Q01DX001 (ip), vehicle: DMSO

S=P(N1CC1)(N1CC1)N1CC1
survivor count (dose: 0.5 mg/kg/injection, schedule: Q03HX024 (ip), vehicle: saline): 8 of 8
survivor count (dose: 1.0 mg/kg/injection, schedule: Q01DX005 (iv), vehicle: saline): 8 of 8
survivor count (dose: 1.0 mg/kg/injection, schedule: Q01DX009 (ip), vehicle: saline): 8 of 8
survivor count (dose: 1.0 mg/kg/injection, schedule: Q01DX009 (sc), vehicle: saline): 8 of 8
survivor count (dose: 1.0 mg/kg/injection, schedule: Q03HX008 (ip), vehicle: saline): 8 of 8
survivor count (dose: 1.0 mg/kg/injection, schedule: Q03HX016 (ip), vehicle: saline): 8 of 8
survivor count (dose: 1.0 mg/kg/injection, schedule: Q03HX024 (ip), vehicle: saline): 8 of 8
survivor count (dose: 2.0 mg/kg/injection, schedule: Q01DX005 (iv), vehicle: saline): 8 of 8
survivor count (dose: 2.0 mg/kg/injection, schedule: Q01DX009 (ip), vehicle: saline): 8 of 8
survivor count (dose: 2.0 mg/kg/injection, schedule: Q01DX009 (sc), vehicle: saline): 8 of 8
survivor count (dose: 2.0 mg/kg/injection, schedule: Q03HX008 (ip), vehicle: saline): 8 of 8
survivor count (dose: 2.0 mg/kg/injection, schedule: Q03HX016 (ip), vehicle: saline): 8 of 8
survivor count (dose: 2.0 mg/kg/injection, schedule: Q03HX024 (ip), vehicle: saline): 8 of 8
survivor count (dose: 4.0 mg/kg/injection, schedule: Q01DX001 (iv), vehicle: saline): 8 of 8
survivor count (dose: 4.0 mg/kg/injection, schedule: Q01DX001 (sc), vehicle: saline): 8 of 8
survivor count (dose: 4.0 mg/kg/injection, schedule: Q01DX005 (iv), vehicle: saline): 8 of 8
survivor count (dose: 4.0 mg/kg/injection, schedule: Q01DX009 (ip), vehicle: saline): 8 of 8
survivor count (dose: 4.0 mg/kg/injection, schedule: Q01DX009 (oral), vehicle: saline): 8 of 8
survivor count (dose: 4.0 mg/kg/injection, schedule: Q01DX009 (sc), vehicle: saline): 8 of 8
survivor count (dose: 4.0 mg/kg/injection, schedule: Q03HX008 (ip), vehicle: saline): 8 of 8
survivor count (dose: 4.0 mg/kg/injection, schedule: Q03HX016 (ip), vehicle: saline): 8 of 8
survivor count (dose: 4.0 mg/kg/injection, schedule: Q03HX024 (ip), vehicle: saline): 8 of 8
survivor count (dose: 4.0 mg/kg/injection, schedule: Q04DX003 (ip), vehicle: saline): 8 of 8
survivor count (dose: 8.0 mg/kg/injection, schedule: Q01DX001 (ip), vehicle: saline): 8 of 8
survivor count (dose: 8.0 mg/kg/injection, schedule: Q01DX001 (iv), vehicle: saline): 8 of 8
survivor count (dose: 8.0 mg/kg/injection, schedule: Q01DX001 (sc), vehicle: saline): 8 of 8
survivor count (dose: 8.0 mg/kg/injection, schedule: Q01DX005 (iv), vehicle: saline): 8 of 8
survivor count (dose: 8.0 mg/kg/injection, schedule: Q01DX009 (ip), vehicle: saline): 8 of 8
survivor count (dose: 8.0 mg/kg/injection, schedule: Q01DX009 (oral), vehicle: saline): 8 of 8
survivor count (dose: 8.0 mg/kg/injection, schedule: Q01DX009 (sc), vehicle: saline): 8 of 8
survivor count (dose: 8.0 mg/kg/injection, schedule: Q03HX008 (ip), vehicle: saline): 6 of 8
survivor count (dose: 8.0 mg/kg/injection, schedule: Q03HX016 (ip), vehicle: saline): 8 of 8
survivor count (dose: 8.0 mg/kg/injection, schedule: Q03HX024 (ip), vehicle: saline): 6 of 8
survivor count (dose: 8.0 mg/kg/injection, schedule: Q04DX003 (ip), vehicle: saline): 8 of 8
survivor count (dose: 8.0 mg/kg/injection, schedule: Q08DX002 (ip), vehicle: saline): 8 of 8
survivor count (dose: 10.0 mg/kg/injection, schedule: Q01DX001 (ip), vehicle: saline): 10 of 10
survivor count (dose: 11.0 mg/kg/injection, schedule: Q01DX001 (ip), vehicle: saline): 10 of 10
survivor count (dose: 15.0 mg/kg/injection, schedule: Q01DX001 (ip), vehicle: saline): 10 of 10
survivor count (dose: 16.0 mg/kg/injection, schedule: Q01DX001 (ip), vehicle: saline): 8 of 8
survivor count (dose: 16.0 mg/kg/injection, schedule: Q01DX001 (iv), vehicle: saline): 8 of 8
survivor count (dose: 16.0 mg/kg/injection, schedule: Q01DX001 (oral), vehicle: saline): 8 of 8
survivor count (dose: 16.0 mg/kg/injection, schedule: Q01DX001 (sc), vehicle: saline): 8 of 8
survivor count (dose: 16.0 mg/kg/injection, schedule: Q01DX005 (iv), vehicle: saline): 8 of 8
survivor count (dose: 16.0 mg/kg/injection, schedule: Q01DX009 (ip), vehicle: saline): 8 of 8
survivor count (dose: 16.0 mg/kg/injection, schedule: Q01DX009 (oral), vehicle: saline): 8 of 8
survivor count (dose: 16.0 mg/kg/injection, schedule: Q01DX009 (sc), vehicle: saline): 8 of 8
survivor count (dose: 16.0 mg/kg/injection, schedule: Q04DX003 (ip), vehicle: saline): 8 of 8
survivor count (dose: 16.0 mg/kg/injection, schedule: Q08DX002 (ip), vehicle: saline): 8 of 8
survivor count (dose: 17.0 mg/kg/injection, schedule: Q01DX001 (ip), vehicle: saline): 10 of 10
survivor count (dose: 25.0 mg/kg/injection, schedule: Q01DX001 (ip), vehicle: saline): 9 of 10
survivor count (dose: 32.0 mg/kg/injection, schedule: Q01DX001 (ip), vehicle: saline): 7 of 8
survivor count (dose: 32.0 mg/kg/injection, schedule: Q01DX001 (iv), vehicle: saline): 3 of 8
survivor count (dose: 32.0 mg/kg/injection, schedule: Q01DX001 (oral), vehicle: saline): 8 of 8
survivor count (dose: 32.0 mg/kg/injection, schedule: Q01DX001 (sc), vehicle: saline): 4 of 8
survivor count (dose: 32.0 mg/kg/injection, schedule: Q01DX009 (oral), vehicle: saline): 6 of 8
survivor count (dose: 32.0 mg/kg/injection, schedule: Q04DX003 (ip), vehicle: saline): 4 of 8
survivor count (dose: 32.0 mg/kg/injection, schedule: Q08DX002 (ip), vehicle: saline): 6 of 8
survivor count (dose: 64.0 mg/kg/injection, schedule: Q01DX001 (ip), vehicle: saline): 6 of 8
survivor count (dose: 64.0 mg/kg/injection, schedule: Q01DX001 (iv), vehicle: saline): 5 of 8
survivor count (dose: 64.0 mg/kg/injection, schedule: Q01DX001 (oral), vehicle: saline): 5 of 8
survivor count (dose: 64.0 mg/kg/injection, schedule: Q01DX001 (sc), vehicle: saline): 5 of 8
survivor count (dose: 64.0 mg/kg/injection, schedule: Q01DX009 (oral), vehicle: saline): 7 of 8
survivor count (dose: 64.0 mg/kg/injection, schedule: Q04DX003 (ip), vehicle: saline): 6 of 8
survivor count (dose: 64.0 mg/kg/injection, schedule: Q08DX002 (ip), vehicle: saline): 5 of 8
survivor count (dose: 128.0 mg/kg/injection, schedule: Q01DX001 (oral), vehicle: saline): 2 of 8
survivor count (dose: 256.0 mg/kg/injection, schedule: Q01DX001 (oral), vehicle: saline): 3 of 8

CC(=O)Nc1ncc2ccccc2c1-c1ccc(NC(=O)CN(CCO)CCO)cc1
survivor count [1]: 2 of 2
survivor count (dose: 1.0 mg/kg/injection, schedule: Q01DX001 (ip), vehicle: olive oil, sesame oil, peanut oil): 2 of 2
survivor count [2]: 2 of 2
survivor count (dose: 10.0 mg/kg/injection, schedule: Q01DX001 (ip), vehicle: olive oil, sesame oil, peanut oil): 2 of 2
survivor count [3]: 2 of 2
survivor count (dose: 100.0 mg/kg/injection, schedule: Q01DX001 (ip), vehicle: olive oil, sesame oil, peanut oil): 2 of 2

CC(=O)N(C(C)=O)c1ncc2ccccc2c1-c1ccc(N)cc1
survivor count [1]: 2 of 2
survivor count [2]: 2 of 2
survivor count [3]: 2 of 2
